Test results published in the supplement of paper PMC7661543.
The effect of the compound repeats well; differences between the knockouts mostly do not.

Tested on: MDA-MB-231
Test: relative cell number vs DMSO control (72 h) (% of DMSO); higher = less growth inhibition (more cells)
Procedure: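 QMAP-Seq: a pool of 5 breast cancer cell lines (ZR-75-1, SKBR3, HCC-38, MDA-MB-231, BT-20), each carrying 12 doxycycline-inducible Cas9 sgRNA perturbations (11 knockouts plus non-targeting sgNT), was treated with compounds for 72 h at four 10-fold doses (10 nM-10 uM or 1 nM-1 uM range). Barcodes were amplified and sequenced, and cell number was interpolated from 293T spike-in standard curves. The result is expressed as % of the median of DMSO wells. Two biological replicates.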

CN1CCN(CCCN2c3ccccc3Sc3ccc(C(F)(F)F)cc32)CC1 [Trifluoperazine]
Conditions | relative cell number
sgRNA knockout: sgATF3, 10 nM | 95.32
sgRNA knockout: sgATF3, 100 nM | 127
sgRNA knockout: sgATF3, 1000 nM | 91.6
sgRNA knockout: sgATF3, 10000 nM | 73
sgRNA knockout: sgATF4, 10 nM | 75.4
sgRNA knockout: sgATF4, 100 nM | 111
sgRNA knockout: sgATF4, 1000 nM | 94.56
sgRNA knockout: sgATF4, 10000 nM | 64.1
sgRNA knockout: sgATF6, 10 nM | 75.4
sgRNA knockout: sgATF6, 100 nM | 116
sgRNA knockout: sgATF6, 1000 nM | 101
sgRNA knockout: sgATF6, 10000 nM | 75
sgRNA knockout: sgATG7, 10 nM | 88.5
sgRNA knockout: sgATG7, 100 nM | 94.2
sgRNA knockout: sgATG7, 1000 nM | 98.8
sgRNA knockout: sgATG7, 10000 nM | 67.2
sgRNA knockout: sgERN1, 10 nM | 101
sgRNA knockout: sgERN1, 100 nM | 98.5
sgRNA knockout: sgERN1, 1000 nM | 85.9
sgRNA knockout: sgERN1, 10000 nM | 74.1
sgRNA knockout: sgHSF1, 10 nM | 93.5
sgRNA knockout: sgHSF1, 100 nM | 99.8
sgRNA knockout: sgHSF1, 1000 nM | 81.3
sgRNA knockout: sgHSF1, 10000 nM | 58.2
sgRNA knockout: sgHSF2, 10 nM | 100
sgRNA knockout: sgHSF2, 100 nM | 99.3
sgRNA knockout: sgHSF2, 1000 nM | 76.5
sgRNA knockout: sgHSF2, 10000 nM | 67.8
sgRNA knockout: sgKEAP1, 10 nM | 92.8
sgRNA knockout: sgKEAP1, 100 nM | 109
sgRNA knockout: sgKEAP1, 1000 nM | 113
sgRNA knockout: sgKEAP1, 10000 nM | 56.6
sgRNA knockout: sgNFE2L2, 10 nM | 88.3
sgRNA knockout: sgNFE2L2, 100 nM | 85.3
sgRNA knockout: sgNFE2L2, 1000 nM | 87.4
sgRNA knockout: sgNFE2L2, 10000 nM | 71.2
sgRNA knockout: sgSLC35F2, 10 nM | 90.4
sgRNA knockout: sgSLC35F2, 100 nM | 121
sgRNA knockout: sgSLC35F2, 1000 nM | 58.5
sgRNA knockout: sgSLC35F2, 10000 nM | 72.9
sgRNA knockout: sgXBP1, 10 nM | 91.2
sgRNA knockout: sgXBP1, 100 nM | 96.7
sgRNA knockout: sgXBP1, 1000 nM | 94.6
sgRNA knockout: sgXBP1, 10000 nM | 64.5

CN1CCc2c(c3ccccc3n2Cc2ccc(C(=O)NO)cc2)C1 [TubastatinA]
Conditions | relative cell number
sgRNA knockout: sgATF3, 10 nM | 103
sgRNA knockout: sgATF3, 100 nM | 101
sgRNA knockout: sgATF3, 1000 nM | 94.5
sgRNA knockout: sgATF3, 10000 nM | 71.1
sgRNA knockout: sgATF4, 10 nM | 100
sgRNA knockout: sgATF4, 100 nM | 150
sgRNA knockout: sgATF4, 1000 nM | 98.7
sgRNA knockout: sgATF4, 10000 nM | 81.2
sgRNA knockout: sgATF6, 10 nM | 82.3
sgRNA knockout: sgATF6, 100 nM | 70.6
sgRNA knockout: sgATF6, 1000 nM | 128
sgRNA knockout: sgATF6, 10000 nM | 66.3
sgRNA knockout: sgATG7, 10 nM | 99
sgRNA knockout: sgATG7, 100 nM | 95.8
sgRNA knockout: sgATG7, 1000 nM | 105
sgRNA knockout: sgATG7, 10000 nM | 65.7
sgRNA knockout: sgERN1, 10 nM | 89.7
sgRNA knockout: sgERN1, 100 nM | 80.8
sgRNA knockout: sgERN1, 1000 nM | 90.3
sgRNA knockout: sgERN1, 10000 nM | 60
sgRNA knockout: sgHSF1, 10 nM | 93.6
sgRNA knockout: sgHSF1, 100 nM | 82
sgRNA knockout: sgHSF1, 1000 nM | 63.4
sgRNA knockout: sgHSF1, 10000 nM | 70.6
sgRNA knockout: sgHSF2, 10 nM | 104
sgRNA knockout: sgHSF2, 100 nM | 90.5
sgRNA knockout: sgHSF2, 1000 nM | 93.7
sgRNA knockout: sgHSF2, 10000 nM | 77.2
sgRNA knockout: sgKEAP1, 10 nM | 117
sgRNA knockout: sgKEAP1, 100 nM | 100
sgRNA knockout: sgKEAP1, 1000 nM | 95.19
sgRNA knockout: sgKEAP1, 10000 nM | 59.9
sgRNA knockout: sgNFE2L2, 10 nM | 90.5
sgRNA knockout: sgNFE2L2, 100 nM | 88.9
sgRNA knockout: sgNFE2L2, 1000 nM | 109
sgRNA knockout: sgNFE2L2, 10000 nM | 67
sgRNA knockout: sgSLC35F2, 10 nM | 86.3
sgRNA knockout: sgSLC35F2, 100 nM | 95.6
sgRNA knockout: sgSLC35F2, 1000 nM | 90.6
sgRNA knockout: sgSLC35F2, 10000 nM | 60
sgRNA knockout: sgXBP1, 10 nM | 108
sgRNA knockout: sgXBP1, 100 nM | 76.8
sgRNA knockout: sgXBP1, 1000 nM | 89.5
sgRNA knockout: sgXBP1, 10000 nM | 52.9

CCC[C@H](NC(=O)/C(C#N)=C/c1cccc(Br)n1)c1ccccc1 [WP1130]
Conditions | relative cell number
sgRNA knockout: sgATF3, 10 nM | 89
sgRNA knockout: sgATF3, 100 nM | 84.4
sgRNA knockout: sgATF3, 1000 nM | 120
sgRNA knockout: sgATF3, 10000 nM | 6.34
sgRNA knockout: sgATF4, 10 nM | 115
sgRNA knockout: sgATF4, 100 nM | 60.98
sgRNA knockout: sgATF4, 1000 nM | 117
sgRNA knockout: sgATF4, 10000 nM | 13.2
sgRNA knockout: sgATF6, 10 nM | 101
sgRNA knockout: sgATF6, 100 nM | 87.1
sgRNA knockout: sgATF6, 1000 nM | 104
sgRNA knockout: sgATF6, 10000 nM | 11
sgRNA knockout: sgATG7, 10 nM | 81.9
sgRNA knockout: sgATG7, 100 nM | 79.4
sgRNA knockout: sgATG7, 1000 nM | 111
sgRNA knockout: sgATG7, 10000 nM | 6.73
sgRNA knockout: sgERN1, 10 nM | 83.1
sgRNA knockout: sgERN1, 100 nM | 84.5
sgRNA knockout: sgERN1, 1000 nM | 84.6
sgRNA knockout: sgERN1, 10000 nM | 6.18
sgRNA knockout: sgHSF1, 10 nM | 99.8
sgRNA knockout: sgHSF1, 100 nM | 99.8
sgRNA knockout: sgHSF1, 1000 nM | 79
sgRNA knockout: sgHSF1, 10000 nM | 6.25
sgRNA knockout: sgHSF2, 10 nM | 106
sgRNA knockout: sgHSF2, 100 nM | 93
sgRNA knockout: sgHSF2, 1000 nM | 114.1
sgRNA knockout: sgHSF2, 10000 nM | 7.84
sgRNA knockout: sgKEAP1, 10 nM | 97.6
sgRNA knockout: sgKEAP1, 100 nM | 83.1
sgRNA knockout: sgKEAP1, 1000 nM | 76.3
sgRNA knockout: sgKEAP1, 10000 nM | 8.11
sgRNA knockout: sgNFE2L2, 10 nM | 83.8
sgRNA knockout: sgNFE2L2, 100 nM | 98.4
sgRNA knockout: sgNFE2L2, 1000 nM | 87.4
sgRNA knockout: sgNFE2L2, 10000 nM | 6.39
sgRNA knockout: sgSLC35F2, 10 nM | 108
sgRNA knockout: sgSLC35F2, 100 nM | 96.5
sgRNA knockout: sgSLC35F2, 1000 nM | 96.2
sgRNA knockout: sgSLC35F2, 10000 nM | 8.05
sgRNA knockout: sgXBP1, 10 nM | 87.3
sgRNA knockout: sgXBP1, 100 nM | 98.5
sgRNA knockout: sgXBP1, 1000 nM | 92.9
sgRNA knockout: sgXBP1, 10000 nM | 7.71
